Molecules are shown by their SMILES. This is one part of the list. Shown are side measurements of this screen, not its main read-out; they come without a call. Most of these compounds were active or inconclusive in the main read-out, so they are no random draw. Words in brackets tell the shape of the fitted curve; partial curves, single points and poor fits give uncertain potencies.

This test in a line: qHTS Assay for Lipid Storage Modulators in Drosophila S3 Cells.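 On cell number change: cells counted by Cell Tracker Red CMTPX staining in the red channel.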 As to conditions: BODIPY lipid droplet fluorescence, 18-24 h; for cell number change: measured here: cell count max response, cells fed with added oleic acid. The method, boiled down: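 Laser-scanning cytometry quantifies lipid droplet accumulation (500–530 nm total intensity; droplet/cell object ratio) in oleic acid-fed (400 uM added) Drosophila S3 cells treated with a concentration series. 20 uM Triacsin C defined 100% inhibition.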
(In qHTS, concentration-response curves come from the screen itself.)

Setting [1] is: measured here: lipid fluorescence (Fed channel) AC50, cells fed with added oleic acid.
Setting [2] is: measured here: cell number channel AC50, cells fed with added oleic acid.

On to `CCN(CC(=O)Nc1ccc(NC(C)=O)cc1)C(=O)Cc1ccccc1F`, for which the cell number change stood at 5.26%.
Regarding `COC(=O)CCCC(=O)NC(C)c1cnn(-c2ccccc2C)c1C` (stereo not given), the cell number change was -23.8%. The AC50 under setting [1] is 18.4 µM [falling, partial curve].
For the compound `Cc1ccc(C(=O)NC(C(=O)Nc2ccccc2)c2ccccc2)cc1` (stereo not given), the AC50 under setting [2] was 0.517 µM [rising, full curve, poor fit].
For the compound `CCOC(=O)c1cc(NC(=O)c2cccnc2)cc(C(=O)OCC)c1`, the half-maximal activity concentration (AC50) is 2.59 µM [rising, partial curve] under setting [2] and 2.59 µM [rising, partial curve] under setting [1].
Consider `CS(=O)(=O)c1nc(-c2cccs2)cc(C(F)(F)F)n1`, for which the cell number change is -86.6%. Further, the AC50 under setting [2] was 20.6 µM [falling, partial curve].
For `CCOc1ccccc1N1CCN(C(=O)CN2C(=O)NC3(CCCC3)C2=O)CC1`, the cell number change stood at 13.3%.
Regarding `N#C/C(=C/c1cn(-c2ccccc2)nc1-c1cccc(S(=O)(=O)N2CCOCC2)c1)C(=O)NCc1ccco1`, the cell number change was 50.1%. The AC50 under setting [2] was 13 µM [rising, partial curve, poor fit]. Besides, the AC50 under setting [1] is 6.51 µM [rising, single point].
Regarding `O=C(N=C1SC2CS(=O)(=O)CC2N1c1ccc(OC(F)(F)F)cc1)C1CC1` (stereo not given), the cell number change was -21.2%. In addition, the AC50 under setting [1] was 29.1 µM [rising, single point].
`COC(=O)c1cc(-c2c(-c3ccc4c(c3)OCO4)noc2-c2ccsc2)cc([N+](=O)[O-])c1`: the cell number change was -0.324%. The AC50 under setting [1] is 29.1 µM [falling, single point].
Consider `Cc1ccc(NC(=O)NC(=O)COc2ccccc2C(N)=O)c(C)c1`, for which the cell number change worked out at 1.13%. In addition, under setting [1], the AC50 is 0.461 µM [falling, partial curve, poor fit].
`COC(=O)C1=C(C)N(C)C(C)=C(C(=O)OC)C1c1ccc(F)c(Br)c1`: under setting [1], the AC50 was 0.13 µM [rising, full curve, poor fit].
In the case of `Cc1sc(NC(=O)Cn2cnnn2)nc1-c1ccc(Cl)cc1`, the cell number change was -1.99%.
Take `Cc1nc(C)c(C(=O)OC(C)C(=O)Nc2ccc(F)cc2)s1` (stereo not given): the cell number change worked out at 15.7%.
In the case of `CCC(C)Nc1nnnc2c1sc1nc3c(cc12)COC(C)(C)C3` (stereo not given), the cell number change was -50.2%. Also, under setting [2], the AC50 is 14.6 µM [falling, single point].
On to `COc1ccccc1-c1c(C)nn2c(C)cc(C)nc12`, for which the cell number change amounted to 57.4%. In addition, the AC50 under setting [2] was 29.1 µM [rising, single point].
For `COC(=O)c1ccccc1NC(=O)N1c2ccccc2Sc2ccccc21`, the cell number change was -41.8%. Under setting [2], the AC50 is 8.2 µM [falling, partial curve]. In addition, the AC50 under setting [1] was 0.82 µM [falling, full curve].
For the compound `O=C(NCc1ccncc1)C1CCCCC1`, the cell number change is -10.4%.
Regarding `O=C(NN1CCOCC1)c1cc(-c2ccncc2)nc2ccccc12`, the AC50 under setting [2] is 0.164 µM [rising, full curve, poor fit].

The AC50 is the midpoint of the concentration-response curve, whichever way the signal moves.

(Values after PubChem BioAssay AID2685 (National Center for Advancing Translational Sciences (NCATS), 2010).)
